Measured values as given in PubChem BioAssay AID651640 (Broad Institute, 2012).
“And” between values parts separate entries of the source, which are not always exact repeats. Equal entries are not always repeated. About 6,000 (1.7%) of roughly 350,000 compounds were called active. The inconclusive results got no clear call from the source; some entries with a clear call stand among them for comparison. Rule as the data show it: active = CPE inhibition above about 20% (passing the limit was not always enough); inconclusive = no clear call, values can overlap the other calls; tested in BHK-21 cells.

experiment: protection of cells from dengue 2 killing – plate reader, single concentration, primary screen (AID 651640); conditions: DENV2-infected cells, cytopathic effect rescue, at 9.99 µM, stronger effect = higher value;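 also: 0% = median of neutral control wells and 100% = median of positive control wells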

Row | Compound | CPE inhibition
1 | C/C=C/c1ccc([C@H]2[C@H]3CN(S(=O)(=O)c4ccc(OC)cc4)CCCCN3[C@H]2CO)cc1 | inconclusive: 59.5%
2 | CNC(=O)C[C@H]1CC[C@@H]2[C@@H](COc3ccc(NC(=O)NC4CCCC4)cc3C(=O)N2C)O1 | inconclusive: 39.9%
3 | CC1=C(C(=O)NC2CCCc3c2cnn3-c2cccc(C)c2C)OCCO1 (centres undefined) | inconclusive: 53.5%
4 | O=C(C[C@@H]1CC[C@H]2NC[C@@H](O)COC[C@@H]2O1)NCCc1ccncc1 | inconclusive: 26.1%
5 | O=C(O)/C=C/C(=O)NNC(=O)c1ccc(Br)cc1 | inconclusive: 41.9%
6 | CCOc1ccc2oc(C(=O)N(C)CCc3ccc(OC)c(OC)c3)c(C)c2c1 | inconclusive: 32.4%
7 | O=C1CSc2ccc(S(=O)(=O)N3CCN(c4ccccc4)CC3)cc2N1 | inconclusive: 46.7%
8 | CC(C)CCNC(=O)C1CC(c2cccc(F)c2)=NO1 (centres undefined) | inconclusive: 42%
9 | COc1ccc(N(C(=O)Cn2nnc3ccccc32)C(C(=O)NCc2ccco2)c2ccncc2)cc1 (centres undefined) | inconclusive: 33.3%
10 | CCNC(=O)Nc1ccc2c(c1)C(=O)N(C)[C@@H]1CC[C@@H](CC(=O)NC3CCCCC3)O[C@@H]1CO2 | inconclusive: 21.5%
11 | COc1cccc(S(=O)(=O)N[C@@H]2CC[C@H](CCn3cc(-c4ccccn4)nn3)O[C@H]2CO)c1 | inconclusive: 45.1%
12 | O=C(Cc1ccc([N+](=O)[O-])cc1)c1ccc(O)cc1O | inactive: -10.1%
13 | Cc1ccc([C@@H]2[C@@H]3C(=O)N(c4ccccc4)C(=O)[C@@H]3[C@]3(C)C(=O)N(Cc4ccccc4)CC(=O)N23)o1 | inactive: -17.4%
14 | CCn1cc(CCCC(=O)NCc2ccc(OC)cc2)c2ccccc21 | inconclusive: 22.7%
15 | Cc1ccccc1NC(=O)c1cccc(C(F)(F)F)c1 | inconclusive: 39.9%
16 | C[C@@H]1CN([C@@H](C)CO)S(=O)(=O)c2ccc(C#Cc3ccncc3)cc2O[C@@H]1CN(C)S(=O)(=O)c1ccccc1 | inconclusive: 28.8%
17 | C[C@@H]1CN([C@@H](C)CO)C(=O)Cc2cc(NS(=O)(=O)c3cn(C)cn3)ccc2O[C@@H]1CN(C)C | inactive: -6.15%
18 | CCC(CO)Oc1cc(NC(=O)c2cccc(Cl)c2)c2ncn(C(C)C)c2c1 (centres undefined) | inconclusive: 69.3%
19 | COc1ccc(CNC(=O)C(CC(C)C)NC(=O)c2ccccc2C)cc1 (centres undefined) | inconclusive: 23.4%
20 | Cc1ccccc1N1C(=O)C(Oc2ccc(Cl)cc2)C1CNC(C)(C)C (centres undefined) | inconclusive: 59.4%
21 | CCOC(=O)C1CCN(c2ccc(-c3cccs3)nn2)CC1 | inconclusive: 22.5%
22 | COCCNc1nc(Nc2ccccc2Cl)c2sccc2n1 | active: 38%

An excerpt of these results, with tabs.
Row	Compound	CPE inhibition
16	C[C@@H]1CN([C@@H](C)CO)S(=O)(=O)c2ccc(C#Cc3ccncc3)cc2O[C@@H]1CN(C)S(=O)(=O)c1ccccc1	inconclusive: 28.8%
18	CCC(CO)Oc1cc(NC(=O)c2cccc(Cl)c2)c2ncn(C(C)C)c2c1 (centres undefined)	inconclusive: 69.3%
20	Cc1ccccc1N1C(=O)C(Oc2ccc(Cl)cc2)C1CNC(C)(C)C (centres undefined)	inconclusive: 59.4%

Next records.

Row | Compound | CPE inhibition
23 | C=CCN1C(=O)[C@]2(O[C@H](CCO)[C@@H]([Si](C)(C)c3ccc(OC)cc3)[C@@H]2C)c2cc(NC(=O)[C@H](C)O)ccc21 | active: 42.4%
24 | C[C@H]1CN([C@@H](C)CO)S(=O)(=O)c2ccc(C3=CCCC3)cc2O[C@@H]1CN(C)S(=O)(=O)c1ccc(F)cc1 | active: 68.9%
25 | COC(=O)c1cccc(N(CC(=O)NC2CCCC2)C(=O)CNC(=O)c2cccs2)c1 | inconclusive: 24.9%
26 | C[C@@H]1CN([C@@H](C)CO)C(=O)Cc2cc(NS(=O)(=O)c3ccccc3)ccc2O[C@@H]1CN(C)Cc1ccc(-c2ccccc2)cc1 | active: 44%
27 | COc1ccccc1CNC(=O)C[C@H]1C[C@H]2c3cc(N(C)C)ccc3O[C@H]2[C@@H](CO)O1 | inactive: 1.65%
28 | C[C@@H]1CCCCO[C@H](CN(C)C(=O)Nc2ccc(F)cc2)[C@H](C)CN([C@@H](C)CO)C(=O)c2cc(NS(=O)(=O)c3ccc(Cl)cc3)ccc2O1 | inactive: -2.67%
29 | COc1ccc(CCNC(=O)C(=O)NCc2ccccc2C)cc1OC | inconclusive: 24.1%
30 | C[C@H](O)[C@@H]1C(=O)N2CCc3c([nH]c4cccc(-c5ccccc5)c34)[C@@H]2C[C@@H]1N(C)C(=O)OCc1ccccc1 | inconclusive: 23.7%
31 | CN(C)C(=O)C[C@@H]1C[C@@H]2c3cc(NC(=O)c4ccc5c(c4)OCO5)ccc3O[C@@H]2[C@@H](CO)O1 | inactive: -1.54%
32 | COc1cc(/C=C/c2cccc[n+]2C)ccc1OCC(=O)Nc1cccc(Cl)c1 | active: 24.8%
33 | C[C@@H]1CCCCO[C@@H](CN(C)CC2CCCCC2)[C@@H](C)CN([C@@H](C)CO)C(=O)c2cc(NS(=O)(=O)c3cn(C)cn3)ccc2O1 | inactive: -2.13%
34 | Cc1noc(C)c1NC(=O)Nc1ccc2c(c1)C(=O)N([C@@H](C)CO)C[C@@H](C)[C@H](CN(C)C(=O)Nc1c(C)noc1C)OCCCC[C@@H](C)O2 | active: 30.5%
35 | COc1ccc(N2CCN(Cc3nc4c(c(=O)[nH]c(=O)n4C)n3Cc3cccc(Cl)c3)CC2)cc1 | active: 98.1%
36 | COc1ccc(S(=O)(=O)N(C)C[C@H]2OCCCC[C@H](C)Oc3ccc(NC(=O)c4ccncc4)cc3C(=O)N([C@H](C)CO)C[C@@H]2C)cc1 | inactive: -4.97%
37 | CC(=O)N(CCc1ccccc1)Cc1cc2cc(C)ccc2[nH]c1=O | inactive: -2.12%
38 | O=C(C[C@H]1CC[C@H]2[C@@H](COC[C@@H](O)CN2Cc2ccccc2)O1)N1CCOCC1 | inactive: -2.1%
39 | Cc1ccc(CN(C)C[C@@H]2OCc3cnnn3CCCC(=O)N([C@@H](C)CO)C[C@H]2C)cc1 | inconclusive: 20.6% and inconclusive: 31.5%
40 | C[C@H](CO)N1C[C@H](C)[C@@H](CN(C)S(=O)(=O)c2ccc(F)cc2)Oc2ccc(NC(=O)CCCCCC(=O)Nc3ccccc3N)cc2C1=O | active: 25.6%
41 | COc1ccc(CCn2nnc3ccccc3c2=O)cc1OC | inactive: 4.97%
42 | CN(C)CC(=O)N[C@@H]1CC[C@@H](CCn2cc(CN(C)C)nn2)O[C@@H]1CO | inactive: -0.134%
43 | CN(C)CCCNC(=O)C[C@H]1CC[C@@H]2[C@H](COc3ccc(NC(=O)c4ccccc4F)cc3C(=O)N2C)O1 | inactive: -3.62%
44 | COC(=O)c1ccc(NC(=O)N2CCCC(C(=O)c3ccccc3OC)C2)cc1 (centres undefined) | inconclusive: 22%
